Values quoted from earlier work, collected in patent US11682473B2, “Skin permeability prediction” (priority 2016, dated 2023).
Where two headings read alike, the source gives them in different places.

Settings: for log KPexp: uncorrected literature value (permeabilities in cm/h)

log KPexp (Texp 25 °C): −3.40
log KPexp (Texp 37 °C): −2.54
log Kp303K (experimental literature values (in vitro diffusion cells), averaged over sources, temperature-corrected to 303 K): −3.0 cm/h
Structure (SMILES): COc1ccc2cc([C@H](C)C(=O)O)ccc2c1 [Naproxen, naproxen]
